Test results taken from article PMC6193740.
Results are given in words; binding and its absence hold for the method and conditions named. In cells and extracts the contact can be indirect. Some binding calls cover weakened binding; strength is not graded here. For some of these results: Tags and fused reporters may be left off the sequences shown. One block for each molecule: values may come before it.

Sequences of proteins named here, by UniProt entry; tags and fusion partners are left off.
UniProt P48754: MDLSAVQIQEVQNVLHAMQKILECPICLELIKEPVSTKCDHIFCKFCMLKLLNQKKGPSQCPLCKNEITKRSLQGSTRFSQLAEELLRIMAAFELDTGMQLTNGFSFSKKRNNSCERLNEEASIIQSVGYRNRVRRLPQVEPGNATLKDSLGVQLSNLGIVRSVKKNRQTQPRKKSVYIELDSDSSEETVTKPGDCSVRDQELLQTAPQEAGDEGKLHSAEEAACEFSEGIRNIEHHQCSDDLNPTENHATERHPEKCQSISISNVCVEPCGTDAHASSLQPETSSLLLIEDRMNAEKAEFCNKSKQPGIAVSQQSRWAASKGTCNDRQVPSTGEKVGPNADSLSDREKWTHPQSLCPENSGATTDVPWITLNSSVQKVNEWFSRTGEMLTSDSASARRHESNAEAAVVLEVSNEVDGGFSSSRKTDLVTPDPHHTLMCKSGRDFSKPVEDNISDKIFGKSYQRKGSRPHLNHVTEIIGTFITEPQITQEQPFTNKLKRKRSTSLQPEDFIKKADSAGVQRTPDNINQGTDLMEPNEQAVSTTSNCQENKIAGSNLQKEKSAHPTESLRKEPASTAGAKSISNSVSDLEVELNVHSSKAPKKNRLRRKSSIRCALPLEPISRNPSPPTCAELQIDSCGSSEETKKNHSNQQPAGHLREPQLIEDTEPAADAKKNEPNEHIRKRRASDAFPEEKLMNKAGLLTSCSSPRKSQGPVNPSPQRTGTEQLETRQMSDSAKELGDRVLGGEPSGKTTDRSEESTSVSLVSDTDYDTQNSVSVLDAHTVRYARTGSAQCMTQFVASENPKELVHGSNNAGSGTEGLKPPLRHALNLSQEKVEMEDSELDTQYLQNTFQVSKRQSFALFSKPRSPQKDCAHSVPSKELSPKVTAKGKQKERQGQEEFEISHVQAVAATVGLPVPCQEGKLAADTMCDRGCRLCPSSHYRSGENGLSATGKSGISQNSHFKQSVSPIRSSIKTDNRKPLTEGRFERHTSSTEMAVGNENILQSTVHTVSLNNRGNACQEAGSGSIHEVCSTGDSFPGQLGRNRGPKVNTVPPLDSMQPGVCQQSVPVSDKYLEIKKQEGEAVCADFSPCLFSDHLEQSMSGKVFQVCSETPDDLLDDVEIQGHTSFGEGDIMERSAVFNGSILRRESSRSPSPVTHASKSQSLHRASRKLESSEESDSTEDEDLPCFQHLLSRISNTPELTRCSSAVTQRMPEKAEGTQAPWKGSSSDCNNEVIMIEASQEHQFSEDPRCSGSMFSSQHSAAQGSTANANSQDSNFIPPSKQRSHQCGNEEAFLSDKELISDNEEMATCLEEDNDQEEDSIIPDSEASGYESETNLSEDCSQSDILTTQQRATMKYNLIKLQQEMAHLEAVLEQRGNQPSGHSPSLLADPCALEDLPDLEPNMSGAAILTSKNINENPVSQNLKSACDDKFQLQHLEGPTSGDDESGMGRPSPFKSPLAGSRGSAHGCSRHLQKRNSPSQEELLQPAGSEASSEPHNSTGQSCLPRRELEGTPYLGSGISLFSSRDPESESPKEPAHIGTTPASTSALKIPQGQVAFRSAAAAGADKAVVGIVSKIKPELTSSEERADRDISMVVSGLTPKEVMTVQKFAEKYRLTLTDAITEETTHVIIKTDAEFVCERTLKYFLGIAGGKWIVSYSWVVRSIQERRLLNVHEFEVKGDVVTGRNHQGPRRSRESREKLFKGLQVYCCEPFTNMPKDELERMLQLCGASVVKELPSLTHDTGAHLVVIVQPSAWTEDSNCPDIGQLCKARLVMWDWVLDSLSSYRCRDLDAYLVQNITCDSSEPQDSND

Columns and labels:
Flag-Cep112 = molecular target: T1, Flag-Cep112 (UniProt Q5PR68); assay: co-IP; lysate of NIH/3T3 cells stably expressing Flag-Cep112; IP with Flag antibody and blot for Brca1, and IP with Brca1 antibody and blot with Flag antibody; anti-IgG IP as control
T1 sequence: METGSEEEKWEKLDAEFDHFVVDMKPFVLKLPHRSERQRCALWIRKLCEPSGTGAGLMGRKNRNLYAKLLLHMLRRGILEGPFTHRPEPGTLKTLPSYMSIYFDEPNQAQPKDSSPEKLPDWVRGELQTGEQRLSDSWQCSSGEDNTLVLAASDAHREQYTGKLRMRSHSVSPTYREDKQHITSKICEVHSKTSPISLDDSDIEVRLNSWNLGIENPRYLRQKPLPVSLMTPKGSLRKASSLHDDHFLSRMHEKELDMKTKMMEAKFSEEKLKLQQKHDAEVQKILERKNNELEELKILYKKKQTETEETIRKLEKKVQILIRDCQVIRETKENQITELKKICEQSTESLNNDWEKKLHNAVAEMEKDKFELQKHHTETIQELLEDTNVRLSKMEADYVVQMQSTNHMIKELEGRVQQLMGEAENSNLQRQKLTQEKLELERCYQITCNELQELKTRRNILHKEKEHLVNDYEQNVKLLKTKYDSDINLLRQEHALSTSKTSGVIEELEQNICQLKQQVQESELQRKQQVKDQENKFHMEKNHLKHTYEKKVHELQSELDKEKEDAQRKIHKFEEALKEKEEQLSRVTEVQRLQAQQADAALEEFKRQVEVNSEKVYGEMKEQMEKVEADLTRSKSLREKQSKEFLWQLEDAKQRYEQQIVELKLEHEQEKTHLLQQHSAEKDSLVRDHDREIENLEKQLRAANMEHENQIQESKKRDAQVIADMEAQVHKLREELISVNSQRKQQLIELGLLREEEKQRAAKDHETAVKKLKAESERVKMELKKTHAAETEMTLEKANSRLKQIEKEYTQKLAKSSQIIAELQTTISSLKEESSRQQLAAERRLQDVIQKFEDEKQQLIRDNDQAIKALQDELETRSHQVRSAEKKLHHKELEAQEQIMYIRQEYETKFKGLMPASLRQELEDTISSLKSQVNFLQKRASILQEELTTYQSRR

[1] = molecular target: T2, centrosomal protein 112 (Cep112) (mouse (endogenous in NIH/3T3)) (UniProt Q5PR68); assay: co-IP; endogenous proteins in NIH/3T3-EV lysate (IP lysis buffer, Pierce); antibodies cross-linked to protein-A Dynabeads, incubated with lysate at 4 °C for 2 hours; IP with Brca1 antibody and blot for Cep112, and vice versa; anti-IgG IP as control; also NIHGinir-shGinir knock-down cells (interaction restored)
T2 sequence: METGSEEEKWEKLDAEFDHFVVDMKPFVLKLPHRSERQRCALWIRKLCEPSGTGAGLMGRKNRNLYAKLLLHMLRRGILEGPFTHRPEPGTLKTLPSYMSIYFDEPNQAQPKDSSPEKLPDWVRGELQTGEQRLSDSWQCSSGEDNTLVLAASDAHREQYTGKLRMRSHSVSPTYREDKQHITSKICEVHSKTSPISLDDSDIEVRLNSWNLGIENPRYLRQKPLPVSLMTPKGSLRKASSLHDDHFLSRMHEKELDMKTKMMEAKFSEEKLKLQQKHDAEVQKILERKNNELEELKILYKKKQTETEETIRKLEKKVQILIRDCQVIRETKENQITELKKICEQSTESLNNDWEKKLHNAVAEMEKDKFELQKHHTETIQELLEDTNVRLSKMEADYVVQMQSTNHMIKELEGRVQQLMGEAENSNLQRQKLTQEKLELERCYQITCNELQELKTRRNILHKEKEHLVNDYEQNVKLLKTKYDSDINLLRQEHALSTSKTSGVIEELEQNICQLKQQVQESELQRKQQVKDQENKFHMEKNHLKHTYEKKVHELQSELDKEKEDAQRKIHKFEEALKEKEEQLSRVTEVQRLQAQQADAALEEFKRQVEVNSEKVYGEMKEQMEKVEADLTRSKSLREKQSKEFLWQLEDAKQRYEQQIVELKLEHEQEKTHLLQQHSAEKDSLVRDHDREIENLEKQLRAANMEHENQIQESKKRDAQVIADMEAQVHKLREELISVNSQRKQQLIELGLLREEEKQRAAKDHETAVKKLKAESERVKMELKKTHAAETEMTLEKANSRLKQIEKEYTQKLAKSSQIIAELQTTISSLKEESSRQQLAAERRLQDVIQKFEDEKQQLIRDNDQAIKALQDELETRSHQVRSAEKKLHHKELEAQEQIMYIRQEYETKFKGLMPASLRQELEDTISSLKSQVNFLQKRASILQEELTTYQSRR

[2] = molecular target: breast cancer type 1 susceptibility protein (Brca1) (mouse (endogenous in NIH/3T3)) (UniProt P48754); assay: co-IP; lysates of NIH/3T3-Ginir cells (clones A, B, C) treated with RNasin (200 U/ml) before IP with Brca1 antibody; blot for Cep112
[3] = molecular target: breast cancer type 1 susceptibility protein (Brca1) (mouse (endogenous in NIH/3T3)) (UniProt P48754); assay: co-IP; lysate of NIH/3T3-Ginir(A) cells (stable overexpression of Ginir RNA); IP with Brca1 antibody, blot for Cep112; anti-IgG IP as control
[4] = molecular target: breast cancer type 1 susceptibility protein (Brca1) (mouse (endogenous in NIH/3T3)) (UniProt P48754); assay: co-IP; lysates of NIH/3T3-Ginir cells (clones A, B, C) treated with RNase A, RNase III and RNase H at 37 °C for 1 hour before IP with Brca1 antibody; blot for Cep112
[5] = molecular target: breast cancer type 1 susceptibility protein (Brca1) (mouse (endogenous in NIH/3T3)) (UniProt P48754); assay: co-IP; endogenous proteins in NIH/3T3-EV lysate (IP lysis buffer, Pierce); antibodies cross-linked to protein-A Dynabeads, incubated with lysate at 4 °C for 2 hours; IP with Brca1 antibody and blot for Cep112, and vice versa; anti-IgG IP as control; also NIHGinir-shGinir knock-down cells (interaction restored)
[6] = molecular target: breast cancer type 1 susceptibility protein (Brca1) (mouse (endogenous in NIH/3T3)) (UniProt P48754); assay: co-IP; lysate of NIH/3T3 cells stably expressing Flag-Cep112; IP with Flag antibody and blot for Brca1, and IP with Brca1 antibody and blot with Flag antibody; anti-IgG IP as control

binding (Flag-Cep112): binds
binding [1]: binds
Molecule: breast cancer type 1 susceptibility protein (Brca1) (from UniProt P48754 1-1812)

binding [2]: binds weakly
binding [3]: binds weakly
binding [4]: binds
binding [5]: binds
B1: centrosomal protein 112 (Cep112) (protein, UniProt Q5PR68 1-954)
chain: METGSEEEKWEKLDAEFDHFVVDMKPFVLKLPHRSERQRCALWIRKLCEPSGTGAGLMGRKNRNLYAKLLLHMLRRGILEGPFTHRPEPGTLKTLPSYMSIYFDEPNQAQPKDSSPEKLPDWVRGELQTGEQRLSDSWQCSSGEDNTLVLAASDAHREQYTGKLRMRSHSVSPTYREDKQHITSKICEVHSKTSPISLDDSDIEVRLNSWNLGIENPRYLRQKPLPVSLMTPKGSLRKASSLHDDHFLSRMHEKELDMKTKMMEAKFSEEKLKLQQKHDAEVQKILERKNNELEELKILYKKKQTETEETIRKLEKKVQILIRDCQVIRETKENQITELKKICEQSTESLNNDWEKKLHNAVAEMEKDKFELQKHHTETIQELLEDTNVRLSKMEADYVVQMQSTNHMIKELEGRVQQLMGEAENSNLQRQKLTQEKLELERCYQITCNELQELKTRRNILHKEKEHLVNDYEQNVKLLKTKYDSDINLLRQEHALSTSKTSGVIEELEQNICQLKQQVQESELQRKQQVKDQENKFHMEKNHLKHTYEKKVHELQSELDKEKEDAQRKIHKFEEALKEKEEQLSRVTEVQRLQAQQADAALEEFKRQVEVNSEKVYGEMKEQMEKVEADLTRSKSLREKQSKEFLWQLEDAKQRYEQQIVELKLEHEQEKTHLLQQHSAEKDSLVRDHDREIENLEKQLRAANMEHENQIQESKKRDAQVIADMEAQVHKLREELISVNSQRKQQLIELGLLREEEKQRAAKDHETAVKKLKAESERVKMELKKTHAAETEMTLEKANSRLKQIEKEYTQKLAKSSQIIAELQTTISSLKEESSRQQLAAERRLQDVIQKFEDEKQQLIRDNDQAIKALQDELETRSHQVRSAEKKLHHKELEAQEQIMYIRQEYETKFKGLMPASLRQELEDTISSLKSQVNFLQKRASILQEELTTYQSRR

binding [6]: binds
B2: Flag-Cep112 (protein, UniProt Q5PR68 1-954)
chain: METGSEEEKWEKLDAEFDHFVVDMKPFVLKLPHRSERQRCALWIRKLCEPSGTGAGLMGRKNRNLYAKLLLHMLRRGILEGPFTHRPEPGTLKTLPSYMSIYFDEPNQAQPKDSSPEKLPDWVRGELQTGEQRLSDSWQCSSGEDNTLVLAASDAHREQYTGKLRMRSHSVSPTYREDKQHITSKICEVHSKTSPISLDDSDIEVRLNSWNLGIENPRYLRQKPLPVSLMTPKGSLRKASSLHDDHFLSRMHEKELDMKTKMMEAKFSEEKLKLQQKHDAEVQKILERKNNELEELKILYKKKQTETEETIRKLEKKVQILIRDCQVIRETKENQITELKKICEQSTESLNNDWEKKLHNAVAEMEKDKFELQKHHTETIQELLEDTNVRLSKMEADYVVQMQSTNHMIKELEGRVQQLMGEAENSNLQRQKLTQEKLELERCYQITCNELQELKTRRNILHKEKEHLVNDYEQNVKLLKTKYDSDINLLRQEHALSTSKTSGVIEELEQNICQLKQQVQESELQRKQQVKDQENKFHMEKNHLKHTYEKKVHELQSELDKEKEDAQRKIHKFEEALKEKEEQLSRVTEVQRLQAQQADAALEEFKRQVEVNSEKVYGEMKEQMEKVEADLTRSKSLREKQSKEFLWQLEDAKQRYEQQIVELKLEHEQEKTHLLQQHSAEKDSLVRDHDREIENLEKQLRAANMEHENQIQESKKRDAQVIADMEAQVHKLREELISVNSQRKQQLIELGLLREEEKQRAAKDHETAVKKLKAESERVKMELKKTHAAETEMTLEKANSRLKQIEKEYTQKLAKSSQIIAELQTTISSLKEESSRQQLAAERRLQDVIQKFEDEKQQLIRDNDQAIKALQDELETRSHQVRSAEKKLHHKELEAQEQIMYIRQEYETKFKGLMPASLRQELEDTISSLKSQVNFLQKRASILQEELTTYQSRR
